This assay deals with Procaspase-8 (human (endogenous in SKW 6.4)) (UniProt Q14790). Nature of the assay: co-IP; caspase-8-co-IP, antibody immobilised on Protein G sepharose beads (Pierce Co-Immunoprecipitation Kit); SKW 6.4 cells with or without CD95L stimulation; Western Blot.

Amino acid sequences for entries named in this document (tags omitted).
UniProt Q14790: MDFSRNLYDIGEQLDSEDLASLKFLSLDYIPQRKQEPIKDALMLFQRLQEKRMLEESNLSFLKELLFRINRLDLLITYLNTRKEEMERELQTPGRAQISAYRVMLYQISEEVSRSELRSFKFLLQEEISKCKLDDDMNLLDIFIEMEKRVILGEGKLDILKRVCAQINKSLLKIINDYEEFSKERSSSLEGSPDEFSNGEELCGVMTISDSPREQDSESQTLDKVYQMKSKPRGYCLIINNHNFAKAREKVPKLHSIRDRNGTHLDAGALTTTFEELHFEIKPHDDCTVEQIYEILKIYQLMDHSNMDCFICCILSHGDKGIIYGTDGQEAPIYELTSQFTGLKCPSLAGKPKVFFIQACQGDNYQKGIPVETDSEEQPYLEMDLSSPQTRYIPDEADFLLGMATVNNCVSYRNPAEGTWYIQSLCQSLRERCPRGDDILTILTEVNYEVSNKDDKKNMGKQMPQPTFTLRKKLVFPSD

Consider one molecule from PMC11178496.

No constants are given. Whether binding was seen depends on the method and setting. Binding seen in cells or lysates may run through a third protein. Some entries that bind do so weakly or less than the wild type.

B1: RIOK1 (protein, UniProt Q9BRS2 1-568)
chain: MDYRRLLMSRVVPGQFDDADSSDSENRDLKTVKEKDDILFEDLQDNVNENGEGEIEDEEEEGYDDDDDDWDWDEGVGKLAKGYVWNGGSNPQANRQTSDSSSAKMSTPADKVLRKFENKINLDKLNVTDSVINKVTEKSRQKEADMYRIKDKADRATVEQVLDPRTRMILFKMLTRGIITEINGCISTGKEANVYHASTANGESRAIKIYKTSILVFKDRDKYVSGEFRFRHGYCKGNPRKMVKTWAEKEMRNLIRLNTAEIPCPEPIMLRSHVLVMSFIGKDDMPAPLLKNVQLSESKARELYLQVIQYMRRMYQDARLVHADLSEFNMLYHGGGVYIIDVSQSVEHDHPHALEFLRKDCANVNDFFMRHSVAVMTVRELFEFVTDPSITHENMDAYLSKAMEIASQRTKEERSSQDHVDEEVFKRAYIPRTLNEVKNYERDMDIIMKLKEEDMAMNAQQDNILYQTVTGLKKDLSGVQKVPALLENQVEERTCSDSEDIGSSECSDTDSEEQGDHARPKKHTTDPDIDKKERKKMVKEAQREKRKNKIPKHVKKRKEKTAKTKKGK
Consider B1, for which the binding result is reported as “binds”.
